Source: paper PMC11994786
No constants are given. Whether binding was seen depends on the method and setting. In cells and extracts the contact can be indirect. These calls come from enrichment with a bait or labelling near it, and not all partners need be listed.

The chains behind the UniProt entries cited, without tags or fusion partners.
UniProt P69566: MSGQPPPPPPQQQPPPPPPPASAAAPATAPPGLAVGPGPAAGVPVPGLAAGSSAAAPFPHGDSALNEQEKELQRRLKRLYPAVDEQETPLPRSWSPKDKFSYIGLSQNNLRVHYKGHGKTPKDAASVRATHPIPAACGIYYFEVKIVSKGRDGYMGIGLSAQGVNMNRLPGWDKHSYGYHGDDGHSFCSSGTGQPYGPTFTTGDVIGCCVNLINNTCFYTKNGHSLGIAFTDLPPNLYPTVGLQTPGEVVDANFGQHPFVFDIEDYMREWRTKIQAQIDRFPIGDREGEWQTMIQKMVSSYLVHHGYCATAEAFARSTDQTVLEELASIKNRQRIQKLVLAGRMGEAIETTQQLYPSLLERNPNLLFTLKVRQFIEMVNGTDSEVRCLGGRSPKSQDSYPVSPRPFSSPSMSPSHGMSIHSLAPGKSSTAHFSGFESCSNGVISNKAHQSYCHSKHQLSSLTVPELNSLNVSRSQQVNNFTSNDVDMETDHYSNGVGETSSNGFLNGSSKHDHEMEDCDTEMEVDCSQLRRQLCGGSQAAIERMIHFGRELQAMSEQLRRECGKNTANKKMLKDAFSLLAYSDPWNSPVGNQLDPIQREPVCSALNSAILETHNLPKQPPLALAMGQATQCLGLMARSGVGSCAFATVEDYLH

B1: Asns (Asparagine Synthetase) (protein, UniProt Q61024 1-561)
chain: MCGIWALFGSDDCLSVQCLSAMKIAHRGPDAFRFENVNGYTNCCFGFHRLAVVDPLFGMQPIRVRKYPYLWLCYNGEIYNHKALQQRFEFEYQTNVDGEIILHLYDKGGIEKTICMLDGVFAFILLDTANKKVFLGRDTYGVRPLFKAMTEDGFLAVCSEAKGLVSLKHSTTPFLKVEPFLPGHYEVLDLKPNGKVASVEMVKYHHCTDEPLHAIYDSVEKLFPGFDLETVKNNLRILFDNAIKKRLMTDRRIGCLLSGGLDSSLVAASLLKQLKEAQVQYPLQTFAIGMEDSPDLLAARKVANYIGSEHHEVLFNSEEGIQALDEVIFSLETYDITTVRASVGMYLISKYIRKNTDSVVIFSGEGSDELTQGYIYFHKAPSPEKAEEESERLLKELYLFDVLRADRTTAAHGLELRVPFLDHRFSSYYLSLPPDMRIPKNGIEKHLLRETFEDCNLLPKEILWRPKEAFSDGITSVKNSWFKILQDYVEHQVDDEMMSAASQKFPFNTPKTKEGYFYRQIFERHYPGRADWLTHYWMPKWINATDPSARTLTHYKSAAKA
B2: Ggh (Gamma-Glutamyl Hydrolase) (protein, UniProt Q9Z0L8 25-317)
chain: RPYNHGSERPIIGVVMQECFGKMAKLGNYYIAASYVKYIESAGARVVPIRPDLSDAEYEELFRSINGVLLPGGGANLTDSGYSRVAKIFFSKALESFDNGDHFPVWGTCLGFEELSVLVSGENLLTSTDTKSKKLPLNFTEGARKSRMFKHFPTELLDSLALENLTANFHKWSLSVKNFTENEKLKKFFNILTTNTDGKTEFISSMEGFKYPVYAVQWHPEKAAFEWKNLGGISHAPNAVKTSFYLAEFLVSEARKNSHHFENVVKETASLIYKFNPIYTGNISSFQQAYMFD
B3: Pgam1 (Phosphoglycerate mutase 1) (protein, UniProt Q9DBJ1 1-254)
chain: MAAYKLVLIRHGESAWNLENRFSGWYDADLSPAGHEEAKRGGQALRDAGYEFDICFTSVQKRAIRTLWTVLDAIDQMWLPVVRTWRLNERHYGGLTGLNKAETAAKHGEAQVKIWRRSYDVPPPPMEPDHPFYSNISKDRRYADLTEDQLPSCESLKDTIARALPFWNEEIVPQIKEGKRVLIAAHGNSLRGIVKHLEGLSEEAIMELNLPTGIPIVYELDKNLKPIKPMQFLGDEETVRKAMEAVAAQGKVKK
B4: Acaa2 (protein, UniProt Q8BWT1 1-397)
chain: MALLRGVFIVAAKRTPFGAYGGLLKDFSATDLTEFAARAALSAGKVPPETIDSVIVGNVMQSSSDAAYLARHVGLRVGVPTETGALTLNRLCGSGFQSIVSGCQEICSKDAEVVLCGGTESMSQSPYCVRNVRFGTKFGLDLKLEDTLWAGLTDQHVKLPMGMTAENLAAKYNISREDCDRYALQSQQRWKAANEAGYFNEEMAPIEVKTKKGKQTMQVDEHARPQTTLEQLQKLPSVFKKDGTVTAGNASGVSDGAGAVIIASEDAVKKHNFTPLARVVGYFVSGCDPTIMGIGPVPAINGALKKAGLSLKDMDLIDVNEAFAPQFLSVQKALDLDPSKTNVSGGAIALGHPLGGSGSRITAHLVHELRRRGGKYAVGSACIGGGQGIALIIQNTA
B5: Got2 (protein, UniProt P05202 30-430)
chain: SSWWTHVEMGPPDPILGVTEAFKRDTNSKKMNLGVGAYRDDNGKPYVLPSVRKAEAQIAAKNLDKEYLPIGGLAEFCKASAELALGENNEVLKSGRFVTVQTISGTGALRVGASFLQRFFKFSRDVFLPKPSWGNHTPIFRDAGMQLQGYRYYDPKTCGFDFSGALEDISKIPEQSVLLLHACAHNPTGVDPRPEQWKEIASVVKKKNLFAFFDMAYQGFASGDGDKDAWAVRHFIEQGINVCLCQSYAKNMGLYGERVGAFTVVCKDAEEAKRVESQLKILIRPLYSNPPLNGARIAATILTSPDLRKQWLQEVKGMADRIISMRTQLVSNLKKEGSSHNWQHITDQIGMFCFTGLKPEQVERLTKEFSVYMTKDGRISVAGVTSGNVGYLAHAIHQVTK
B6: Uqcrb (protein, UniProt Q9D855 1-111)
chain: MAGRSAVSASSKWLDGFRKWYYNAAGFNKLGLMRDDTLHETEDVKEAIRRLPEDLYNDRMLRIKRALDLTMRHQILPKDQWTKYEEDKFYLEPYLKEVIRERKEREEWAKK
B7: Cyb5b (protein, UniProt Q9CQX2 12-146)
chain: KVEGSEPSVTYYRLEEVAKRNSAEETWMVIHGRVYDITRFLSEHPGGEEVLLEQAGADATESFEDVGHSPDAREMLKQYYIGDVHPSDLKPKGDDKDPSKNNSCQSSWAYWFVPIVGAILIGFLYRHFWADSKSS
B8: Vat1 (protein, UniProt Q62465 1-406)
chain: MSAEREAAEAATVAAATEAGAETGTGAGEGAPSQPPTVEVASDPQPPPAPEASASASAPPLRCLVLTGFGGYDKVKLQSRPAVPPAPGPGQLTLRVRACGLNFADLMGRQGLYDRLPPLPVTPGMEGAGVVVAVGEGVGDRKAGDRVMVLNRSGMWQEEVTVPSAQTFLMPEAMTFEEAAALLVNYITAYMVLFDFGNLRPGHSVLVHMAAGGVGMAALQLCRTVENVTVFGTASASKHEVLKENGVTHPIDYHTTDYVDEIKKISPKGVDIVMDPLGGSDTAKGYHLLKPMGKVVTYGMANLLTGPKRNLMAMARTWWNQFSVTALQLLQANRAVCGFHLGYLDGEVELVNSVVTRLVALYNQGHIKPRIDSVWPFEKVADAMKQMQEKKNIGKVLLVPGPEKET
B9: Acot2 (protein, UniProt Q9QYR9 43-453)
chain: NATLSVEPEGRSCWDEPLSIAVRGLAPEQPVTLRSALRDEKGALFRAHARYRADAGGELNLARAPALGGSFSGLEPMGLLWAMEPERPLWRLIKRDVQTPFLVELEVLDGHEPDGGQRLAQAVHERHFLAPGVRRVPVREGRVRATLFLPPEPGPFPGIIDLFGVGGGLLEYRASLLAGKGFAVMALAYYNYDDLPKSIETMHMEYFEEAVNYLRSHPEVKGPGIGLLGISKGGELGLAMASFLKGITAAVVINGSVAAVGNTISYKDETIPPVSLLRNQVKMTKDGLLDVVEALQSPLVDKKSFIPVERSDTTFLFLVGQDDHNWKSEFYADEISKRLQAHGKEKPQIICYPAAGHYIEPPYFPLCSAGMHLLVGANITFGGEPRAHAVAQVDAWQQLQTFFHKQLGSKS
B10: Mdh2 (protein, UniProt P08249 25-338)
chain: AKVAVLGASGGIGQPLSLLLKNSPLVSRLTLYDIAHTPGVAADLSHIETRANVKGYLGPEQLPDCLKGCDVVVIPAGVPRKPGMTRDDLFNTNATIVATLTAACAQHCPEAMVCIIANPVNSTIPITAEVFKKHGVYNPNKIFGVTTLDIVRANTFVAELKGLDPARVNVPVIGGHAGKTIIPLISQCTPKVDFPQDQLATLTGRIQEAGTEVVKAKAGAGSATLSMAYAGARFVFSLVDAMNGKEGVVECSFVQSKETECTYFSTPLLLGKKGLEKNLGIGKITPFEEKMIAEAIPELKASIKKGEDFVKNMK
B11: Qdpr (Quinoid Dihydropteridine Reductase) (protein, UniProt Q8BVI4 1-241)
chain: MAASGEARRVLVYGGRGALGSRCVQAFRARNWWVASIDVVENEEASASVVVKMTDSFTEQADQVTADVGKLLGDQKVDAILCVAGGWAGGNAKSKSLFKNCDMMWKQSMWTSTISSHLATKHLKEGGLLTLAGAKAALDGTPGMIGYGMAKGAVHQLCQSLAGKNSGMPPGAAAIAVLPVTLDTPMNRKSMPEADFSSWTPLEFLVETFHDWITGNKRPNSGSLIQVVTTDGKTELTPAYF
B12: Trip13 (protein, UniProt Q3UA06 1-432)
chain: MDEAVGDLKQALPCVAESPAVHVEVLQRSGSTAKKEDIKSSVYRLLNRHNIVFGDYVWTEFDDPFLSRNVQSVSIVDTELKAKDPQPIDLSACTIALHIFQLNEEGPSSENLDEETENIIAASHWVLPAAEFHGLWDSLVYDVEVKSHLLDYVMTTVLFSDKNVDSNLITWNRVVLLHGPPGTGKTSLCKALAQKLTIRLSSRYRYGQLIEINSHSLFSKWFSESGKLVTKMFQKIQDLIDDKEALVFVLIDEVESLTAARNACRAGAEPSDAIRVVNAVLTQIDQIKRHSNVVILTTSNITEKIDVAFVDRADIKQYIGPPSAAAIFKIYLSCLEELMKCQIIYPRQQLLTLRELEMIGFIENNVSKLSLLLSEISRKSEGLSGRVLRKLPFLAHALYIQAPSVTIEGFLQALSLAVDKQFEEKKKLSAYV

Target: RanBP9-V5 (Ran Binding Protein 9 with a V5 tag at the C-terminus) (mouse) (UniProt P69566)
Experiment: affinity purification with mass spectrometry; anti-V5 magnetic beads on 1 mg pre-cleared whole lung lysate of LysMBP9X mice, overnight at 4 °C, on-bead trypsin digestion, LC-MS/MS; hits significant (p ≤ 0.05) against V5-IP from WT mice and Ig-IPs

Row | binding | Binder
1 | binds | B1
2 | binds | B2
3 | binds | B3
4 | binds | B4
5 | binds | B5
6 | binds | B6
7 | binds | B7
8 | binds | B8
9 | binds | B9
10 | binds | B10
11 | binds | B11
12 | binds | B12
